Data on one molecule can be found in patent publication US20220146528A1.

By UniProt entry, the sequences of proteins in these tests, tags left out. Residues count along the entry.
UniProt Q03692, residues 479-680: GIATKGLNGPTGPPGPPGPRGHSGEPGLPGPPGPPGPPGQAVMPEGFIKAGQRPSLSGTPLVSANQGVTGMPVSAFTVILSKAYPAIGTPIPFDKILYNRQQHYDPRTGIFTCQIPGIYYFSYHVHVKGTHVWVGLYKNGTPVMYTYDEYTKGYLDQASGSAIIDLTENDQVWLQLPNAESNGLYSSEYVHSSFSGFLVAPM

No constants are given. Whether binding was seen depends on the method and setting. Some results given as binding are weak or reduced against the parent protein; the word gives no strength.

Assay [1] has as its target collagen type X alpha-1 fragment carrying the N-terminus neo-epitope 479GIATKG, in human OA articular cartilage sections (human) (UniProt Q03692). Nature of the assay: immunohistochemistry on human OA cartilage sections.
Assay [2] shares this target. The assay can be described thus: immunohistochemistry on human OA cartilage sections (FIG. 3C legend).

B1: monoclonal antibody NB117-2F4 (antibody, mouse IgG2b, kappa, V domains shown)
VH: EVQLQESGPSLVKPSQTLSLTCSVTGDSITSGFWSWIRKFPGNKLEFMGYIKYSGDTYFNPSLKSRISITRDTSKNQYYLQLNSVTPEDTATYYCSDMDYWGQGTSVTVSS
VL: DVVMTQTPRSLPVSLGDQASISCRSSQSLVHNNGNTYLHWYLQMPGQSPKLLIYKVSNRFSGVPDRFSGSGSGTDFTLKISRVEAEDLGVYFCSQITHVPWTFGGGTKLEIKR
In the case of B1, the binding entry in assay [1] and in assay [2] was “binds” throughout.
